Measured values: the supplement of paper PMC3334620
Whole data set: some 33,000 sequences, median “E-score (-0.5 to 0.5)” near -0.0034, cut for the highest 2% near 0.25. This is one part of the list.

What follows are sequences tested against T1, Yap3 (UniProt P38749) (assay: PBM E-score (8-mer binding enrichment) (E-score (-0.5 to 0.5)); higher = stronger / more preferred TF binding). Settings: protein concentration: 100 nM; construct: GST-full length.
T1 sequence: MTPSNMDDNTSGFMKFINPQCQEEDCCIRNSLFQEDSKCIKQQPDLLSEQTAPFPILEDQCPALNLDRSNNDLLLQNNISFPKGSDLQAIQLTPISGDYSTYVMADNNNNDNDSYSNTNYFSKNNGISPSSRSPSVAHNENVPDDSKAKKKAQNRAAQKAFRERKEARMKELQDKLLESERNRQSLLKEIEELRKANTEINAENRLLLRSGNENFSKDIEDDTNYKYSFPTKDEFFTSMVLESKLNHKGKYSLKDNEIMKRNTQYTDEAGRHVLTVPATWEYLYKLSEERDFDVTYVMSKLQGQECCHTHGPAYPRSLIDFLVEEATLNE
Description: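 Universal 'all 10-mer' protein binding microarrays (Agilent AMADID 015681) probed with GST-tagged S. cerevisiae TFs (full-length or DBD) made by in vitro transcription/translation (PURExpress), about 100-200 nM. Bound TF was detected with fluorescent anti-GST. Each ungapped 8-mer (which stands for itself and its reverse complement) is scored by the PBM enrichment score (E-score), a modified Wilcoxon-Mann-Whitney statistic from -0.5 to +0.5, computed with the Universal PBM Analysis Suite. Scale: above 0.35 generally sequence-specific binding.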
For GACTTGAA, the “PBM E-score” value was -0.0464.
CCCTGAAG was tested, and the “PBM E-score” value was -0.141.
AGAAACCC was tested, and the “PBM E-score” value was -0.0814.
With AGCAGCCA the “PBM E-score” value was -0.0645.
TAATGTAA was tested, and the “PBM E-score” value was 0.312.
For TACCCGCA, the “PBM E-score” value was 0.0998.
With CAATGGAG the “PBM E-score” value was -0.14.
In the case of CAAGAAAA, the “PBM E-score” value is reported as 0.195.
For AGTCACCG, the “PBM E-score” value was -0.052.
With AAAGGGAT the “PBM E-score” value was 0.121.
GCTTACAA was tested, and the “PBM E-score” value was 0.0448.
AGCCTCGA was tested, and the “PBM E-score” value was -0.0476.
For ACCCGCGG, the “PBM E-score” value was -0.0614.
CTCTCCTC was tested, and the “PBM E-score” value was -0.214.
In the case of CGTTCTAC, the “PBM E-score” value is reported as -0.0659.
For AGAAAGCC, the “PBM E-score” value was 0.0871.
With GACATGGA the “PBM E-score” value was 0.0543.
With CCTGGAGA the “PBM E-score” value was -0.0769.
CCTCCTCC was tested, and the “PBM E-score” value was -0.313.
In the case of GATGTGAC, the “PBM E-score” value is reported as -0.116.
For GATCGATC, the “PBM E-score” value was 0.0154.
For CACTCGAG, the “PBM E-score” value was -0.0738.
With CGGTGGAC the “PBM E-score” value was -0.112.
For GCCAGCCA, the “PBM E-score” value was -0.116.
For ATGTACCA, the “PBM E-score” value was -0.0322.
For CAACTACA, the “PBM E-score” value was 0.195.
For CCCTGGGA, the “PBM E-score” value was -0.32.
For CCGCTACA, the “PBM E-score” value was -0.0599.
With ATTACCAA the “PBM E-score” value was 0.271.
For AACATGCC, the “PBM E-score” value was -0.132.
For GCAAGTCC, the “PBM E-score” value was -0.203.
With CGAGCCGA the “PBM E-score” value was -0.0279.
For ATGACTCC, the “PBM E-score” value was -0.153.
CTTAGTGA was tested, and the “PBM E-score” value was -0.16.
In the case of AGACCATA, the “PBM E-score” value is reported as 0.156.
With CTCGGGCA the “PBM E-score” value was 0.0125.
With AAGGGCCG the “PBM E-score” value was -0.304.
GGTACCCA was tested, and the “PBM E-score” value was -0.221.
In the case of GGTAGGAA, the “PBM E-score” value is reported as 0.0894.
With ATCAAAAT the “PBM E-score” value was 0.115.
In the case of AACGTTCA, the “PBM E-score” value is reported as -0.0892.
TGCACGCA was tested, and the “PBM E-score” value was -0.166.
With CCAAGAAA the “PBM E-score” value was -0.00981.
AATACTAA was tested, and the “PBM E-score” value was 0.174.
For AGGGCATC, the “PBM E-score” value was -0.281.
With CATGCGTA the “PBM E-score” value was 0.142.
In the case of CGCTTAAG, the “PBM E-score” value is reported as -0.099.
ATCTGATC was tested, and the “PBM E-score” value was -0.0544.
For CCGTCGCC, the “PBM E-score” value was -0.0429.
GGTGAATA was tested, and the “PBM E-score” value was 0.132.
AAACAGAC was tested, and the “PBM E-score” value was 0.155.
For ACGGACTA, the “PBM E-score” value was -0.0366.
In the case of TAACCGAA, the “PBM E-score” value is reported as 0.0287.
In the case of CGCTGATC, the “PBM E-score” value is reported as -0.0569.
With GTGACCTA the “PBM E-score” value was -0.219.
For CGTGGTAG, the “PBM E-score” value was -0.0485.
In the case of AAATCCGA, the “PBM E-score” value is reported as 0.0924.
AGCTCAGG was tested, and the “PBM E-score” value was -0.0122.
AGTTTTGG was tested, and the “PBM E-score” value was 0.119.
With CCTTGTAC the “PBM E-score” value was -0.0735.
CCCCATAC was tested, and the “PBM E-score” value was -0.103.
With CACTATAA the “PBM E-score” value was -0.00697.
With ATATACTC the “PBM E-score” value was 0.126.
In the case of AGCGTATA, the “PBM E-score” value is reported as 0.196.
AAGCCGGC was tested, and the “PBM E-score” value was 0.00759.
GGAACCAC was tested, and the “PBM E-score” value was -0.0635.
With CATCCAGG the “PBM E-score” value was -0.129.
CCAAGGTC was tested, and the “PBM E-score” value was -0.0728.
For GCGGTCTA, the “PBM E-score” value was -0.00917.
For AGCAATTG, the “PBM E-score” value was 0.0843.
With ACGCAGCT the “PBM E-score” value was -0.0552.
ACCATAGC was tested, and the “PBM E-score” value was -0.0441.
With AAAAGCAC the “PBM E-score” value was -0.0154.
In the case of AAAAATTC, the “PBM E-score” value is reported as 0.0453.
With ACACGTTA the “PBM E-score” value was 0.0573.
With CACGTGCG the “PBM E-score” value was -0.0489.
In the case of CACCTCCA, the “PBM E-score” value is reported as 0.0298.
With CTTGTTGC the “PBM E-score” value was 0.0294.
For ATTAGCCG, the “PBM E-score” value was 0.105.
For TAACAACA, the “PBM E-score” value was 0.169.
For TATACCGA, the “PBM E-score” value was 0.155.
With CCAGCAAA the “PBM E-score” value was 0.0803.
ATTGACAA was tested, and the “PBM E-score” value was -0.0498.
With AAATACTA the “PBM E-score” value was 0.141.
For AAATTTGC, the “PBM E-score” value was 0.0617.
With CCGCTGTC the “PBM E-score” value was -0.0387.
